At least one compound was matched to its structure with a doubt left.
Test system: human plasma
Assay: In vitro kaolin clotting of plasma with atheroma IgG abzymes
Conditions: plasma pH 6.2, FIG. 14

SMILES: CCN(CC)C(=S)S [DDC, diethyldithiocarbamate]
- abzyme effect on the plasma clotting after pre-incubation of the abzymes with inhibitor: reduction
